Data on 3 sequences can be found in patent US20100304462.

Test in all cases: enzyme reaction in vitro
The subject of data set [1] is T1, SpoDI (Silicibacter pomeroyi).
T1 sequence (limits assumed): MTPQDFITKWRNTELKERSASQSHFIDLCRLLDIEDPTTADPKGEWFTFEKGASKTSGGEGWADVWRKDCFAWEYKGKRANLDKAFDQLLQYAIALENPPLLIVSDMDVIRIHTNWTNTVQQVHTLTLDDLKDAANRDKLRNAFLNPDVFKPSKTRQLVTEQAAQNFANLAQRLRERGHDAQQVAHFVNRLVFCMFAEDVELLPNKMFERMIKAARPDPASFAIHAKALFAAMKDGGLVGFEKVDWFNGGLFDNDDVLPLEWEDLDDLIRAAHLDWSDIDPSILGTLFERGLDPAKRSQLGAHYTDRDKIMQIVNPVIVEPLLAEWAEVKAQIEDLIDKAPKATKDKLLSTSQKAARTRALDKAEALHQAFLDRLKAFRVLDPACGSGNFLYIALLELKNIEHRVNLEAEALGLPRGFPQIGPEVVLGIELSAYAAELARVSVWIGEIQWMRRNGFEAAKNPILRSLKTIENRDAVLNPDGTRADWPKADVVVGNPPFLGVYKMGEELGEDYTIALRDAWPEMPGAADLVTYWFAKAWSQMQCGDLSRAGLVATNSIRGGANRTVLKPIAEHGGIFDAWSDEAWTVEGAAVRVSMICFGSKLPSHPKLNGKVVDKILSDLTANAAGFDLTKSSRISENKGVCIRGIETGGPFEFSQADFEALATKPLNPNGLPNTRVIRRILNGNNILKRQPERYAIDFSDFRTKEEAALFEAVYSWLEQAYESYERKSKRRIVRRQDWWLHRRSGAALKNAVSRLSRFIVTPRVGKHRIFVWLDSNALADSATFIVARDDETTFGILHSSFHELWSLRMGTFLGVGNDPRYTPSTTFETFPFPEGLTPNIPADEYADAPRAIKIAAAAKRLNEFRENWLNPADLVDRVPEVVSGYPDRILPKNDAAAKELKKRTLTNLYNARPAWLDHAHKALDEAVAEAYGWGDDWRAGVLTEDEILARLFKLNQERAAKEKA
To be noted: cuts N20/N18; protein in a lysate after overexpression.

Another data set deals with T2, GauT27I(0G) R790D/E802R.
T2 sequence (limits assumed): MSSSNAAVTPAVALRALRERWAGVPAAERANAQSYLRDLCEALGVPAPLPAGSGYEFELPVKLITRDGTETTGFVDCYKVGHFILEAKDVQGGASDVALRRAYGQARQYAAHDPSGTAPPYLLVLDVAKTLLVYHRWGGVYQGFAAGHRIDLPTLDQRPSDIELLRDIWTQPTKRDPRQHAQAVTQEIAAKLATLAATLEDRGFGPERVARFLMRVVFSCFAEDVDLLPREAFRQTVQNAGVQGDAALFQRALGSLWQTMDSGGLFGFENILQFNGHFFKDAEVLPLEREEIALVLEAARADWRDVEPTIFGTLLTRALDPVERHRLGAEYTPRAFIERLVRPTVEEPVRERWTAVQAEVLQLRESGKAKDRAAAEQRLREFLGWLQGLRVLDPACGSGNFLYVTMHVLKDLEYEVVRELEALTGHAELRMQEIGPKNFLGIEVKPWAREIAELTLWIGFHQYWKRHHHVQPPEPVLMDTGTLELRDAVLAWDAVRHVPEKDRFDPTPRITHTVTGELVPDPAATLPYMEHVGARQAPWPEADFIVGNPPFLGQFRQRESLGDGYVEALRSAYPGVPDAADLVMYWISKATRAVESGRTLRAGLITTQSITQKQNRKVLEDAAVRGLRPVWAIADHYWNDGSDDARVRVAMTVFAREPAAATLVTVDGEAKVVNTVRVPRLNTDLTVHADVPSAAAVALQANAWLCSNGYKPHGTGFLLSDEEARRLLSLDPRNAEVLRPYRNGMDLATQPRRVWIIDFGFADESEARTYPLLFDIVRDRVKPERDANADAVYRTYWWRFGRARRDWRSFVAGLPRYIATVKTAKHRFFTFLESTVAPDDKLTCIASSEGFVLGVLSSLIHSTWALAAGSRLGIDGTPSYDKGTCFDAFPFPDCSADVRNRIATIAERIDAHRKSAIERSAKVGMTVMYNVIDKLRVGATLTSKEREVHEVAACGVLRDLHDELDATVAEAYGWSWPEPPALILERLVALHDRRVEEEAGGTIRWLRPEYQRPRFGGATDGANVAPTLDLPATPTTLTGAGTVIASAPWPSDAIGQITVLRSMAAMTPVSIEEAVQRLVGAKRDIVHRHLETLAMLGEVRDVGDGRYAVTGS
To be noted: cuts 19/17; protein in a lysate after overexpression; variant of GauT27I site.

Data set [2] has as its system T3, ApyPI (Arcanobacterium pyogenes).
T3 sequence (limits assumed): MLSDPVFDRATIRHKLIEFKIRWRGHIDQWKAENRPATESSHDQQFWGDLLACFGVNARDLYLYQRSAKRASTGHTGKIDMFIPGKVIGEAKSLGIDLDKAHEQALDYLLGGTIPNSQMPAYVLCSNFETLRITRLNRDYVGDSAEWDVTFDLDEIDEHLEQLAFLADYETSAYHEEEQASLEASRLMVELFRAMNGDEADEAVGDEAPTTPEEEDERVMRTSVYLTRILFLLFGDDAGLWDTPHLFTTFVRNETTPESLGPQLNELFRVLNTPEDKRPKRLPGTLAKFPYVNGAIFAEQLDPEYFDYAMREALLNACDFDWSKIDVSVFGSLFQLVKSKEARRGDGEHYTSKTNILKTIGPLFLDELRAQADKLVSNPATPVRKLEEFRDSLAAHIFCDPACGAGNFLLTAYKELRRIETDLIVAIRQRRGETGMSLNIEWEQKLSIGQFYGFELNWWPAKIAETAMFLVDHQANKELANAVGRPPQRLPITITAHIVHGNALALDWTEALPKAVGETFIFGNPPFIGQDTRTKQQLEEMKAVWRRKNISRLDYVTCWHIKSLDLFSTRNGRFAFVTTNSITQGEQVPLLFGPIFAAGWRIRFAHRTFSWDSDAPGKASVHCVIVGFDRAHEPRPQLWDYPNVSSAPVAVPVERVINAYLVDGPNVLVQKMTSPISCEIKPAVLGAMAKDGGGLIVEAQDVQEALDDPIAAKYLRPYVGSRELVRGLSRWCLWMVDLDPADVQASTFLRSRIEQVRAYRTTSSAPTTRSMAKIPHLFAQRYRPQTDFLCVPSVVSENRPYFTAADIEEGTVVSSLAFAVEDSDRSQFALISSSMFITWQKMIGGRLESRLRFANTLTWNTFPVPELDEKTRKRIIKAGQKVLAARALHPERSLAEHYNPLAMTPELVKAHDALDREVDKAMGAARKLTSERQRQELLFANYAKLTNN
To be noted: cuts N20/N18; frameshift corrected; protein in a lysate after overexpression.

Protein sequences can lack the tags named with them.

For the sequence GCGGAAG (double strand) [SpoDI site], the “activity on this sequence” value in data set [1] was “active”.

Turning to “GGCGCAGG (double strand) [GauT27I(0G) site]”, the “activity on this sequence” value in the data set on GauT27I(0G) R790D/E802R is “active”.

As for ATCGAC (double strand) [ApyPI site], the “activity on this sequence” value in data set [2] is reported as “active”.
